Values of other authors in US20240251794A1, “USE OF QUASSIA-EXTRACT FOR A SEED TREATMENT AS INSECTICIDE” (KWS SAAT SE & Co. KGaA, priority 2021, published 2024).

## COC1=C[C@@H](C)[C@@H]2C[C@H]3OC(=O)C[C@H]4C(C)=C(OC)C(=O)[C@H]([C@@]2(C)C1=O)[C@@]34C [Quassin, 2,12-dimethoxypicrasa-2,12-diene-1,11,16-trione]
Relative to caffeine
  more bitter than caffeine: 1670 times
Relative to quinine
  more bitter than quinine: 50 times
